Experimental data: the supplement of paper PMC10849652
The other results are listed elsewhere or left out.

Protein sequences, listed by entry. Tags and fused reporters are not part of them. Lines headed by an entry give the natural chain unless they say otherwise; changes in a name come on top.
UniProt Q8N1S5: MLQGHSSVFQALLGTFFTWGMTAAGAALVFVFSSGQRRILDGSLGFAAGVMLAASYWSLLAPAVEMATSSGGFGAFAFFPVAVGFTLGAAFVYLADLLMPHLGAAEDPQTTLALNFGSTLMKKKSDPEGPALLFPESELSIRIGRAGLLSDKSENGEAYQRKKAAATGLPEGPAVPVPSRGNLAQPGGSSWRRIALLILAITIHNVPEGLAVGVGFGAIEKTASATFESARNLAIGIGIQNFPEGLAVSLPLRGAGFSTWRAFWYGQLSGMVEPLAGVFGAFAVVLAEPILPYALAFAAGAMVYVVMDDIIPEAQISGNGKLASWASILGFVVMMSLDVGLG
UniProt Q9BV35: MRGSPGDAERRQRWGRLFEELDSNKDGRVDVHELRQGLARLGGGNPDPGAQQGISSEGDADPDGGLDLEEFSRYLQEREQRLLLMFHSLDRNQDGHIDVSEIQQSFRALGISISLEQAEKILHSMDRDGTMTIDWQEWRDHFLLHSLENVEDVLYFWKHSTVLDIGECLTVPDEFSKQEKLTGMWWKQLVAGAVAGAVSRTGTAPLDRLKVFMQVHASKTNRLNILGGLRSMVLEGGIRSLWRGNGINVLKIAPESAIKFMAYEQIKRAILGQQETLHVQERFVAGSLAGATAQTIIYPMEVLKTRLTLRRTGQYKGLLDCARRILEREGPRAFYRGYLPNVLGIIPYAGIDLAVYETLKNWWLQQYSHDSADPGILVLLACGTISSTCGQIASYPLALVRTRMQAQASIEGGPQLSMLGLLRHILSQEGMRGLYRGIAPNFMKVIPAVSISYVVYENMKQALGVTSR
UniProt Q9Y2D2: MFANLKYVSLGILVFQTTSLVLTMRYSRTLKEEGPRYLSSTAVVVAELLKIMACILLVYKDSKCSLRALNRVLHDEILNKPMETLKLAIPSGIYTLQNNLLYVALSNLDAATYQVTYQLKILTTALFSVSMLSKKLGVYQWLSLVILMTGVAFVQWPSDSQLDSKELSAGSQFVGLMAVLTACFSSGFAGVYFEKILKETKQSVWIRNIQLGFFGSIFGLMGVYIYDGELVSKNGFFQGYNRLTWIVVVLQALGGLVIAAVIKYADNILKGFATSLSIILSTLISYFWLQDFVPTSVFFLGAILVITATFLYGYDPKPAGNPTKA
UniProt Q96CQ1: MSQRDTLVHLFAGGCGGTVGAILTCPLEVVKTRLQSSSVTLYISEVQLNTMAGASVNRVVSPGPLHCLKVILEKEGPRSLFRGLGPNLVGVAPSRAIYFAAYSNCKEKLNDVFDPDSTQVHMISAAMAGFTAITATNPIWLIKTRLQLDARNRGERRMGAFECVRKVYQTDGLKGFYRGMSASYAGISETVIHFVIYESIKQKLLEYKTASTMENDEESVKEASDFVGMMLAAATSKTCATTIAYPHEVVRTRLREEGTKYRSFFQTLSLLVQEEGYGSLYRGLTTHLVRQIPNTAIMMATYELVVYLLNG
UniProt Q6P1K1: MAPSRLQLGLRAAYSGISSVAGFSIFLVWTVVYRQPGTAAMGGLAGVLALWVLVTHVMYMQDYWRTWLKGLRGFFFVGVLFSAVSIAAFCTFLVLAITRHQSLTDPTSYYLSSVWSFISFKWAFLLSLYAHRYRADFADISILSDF
UniProt Q8NBW4: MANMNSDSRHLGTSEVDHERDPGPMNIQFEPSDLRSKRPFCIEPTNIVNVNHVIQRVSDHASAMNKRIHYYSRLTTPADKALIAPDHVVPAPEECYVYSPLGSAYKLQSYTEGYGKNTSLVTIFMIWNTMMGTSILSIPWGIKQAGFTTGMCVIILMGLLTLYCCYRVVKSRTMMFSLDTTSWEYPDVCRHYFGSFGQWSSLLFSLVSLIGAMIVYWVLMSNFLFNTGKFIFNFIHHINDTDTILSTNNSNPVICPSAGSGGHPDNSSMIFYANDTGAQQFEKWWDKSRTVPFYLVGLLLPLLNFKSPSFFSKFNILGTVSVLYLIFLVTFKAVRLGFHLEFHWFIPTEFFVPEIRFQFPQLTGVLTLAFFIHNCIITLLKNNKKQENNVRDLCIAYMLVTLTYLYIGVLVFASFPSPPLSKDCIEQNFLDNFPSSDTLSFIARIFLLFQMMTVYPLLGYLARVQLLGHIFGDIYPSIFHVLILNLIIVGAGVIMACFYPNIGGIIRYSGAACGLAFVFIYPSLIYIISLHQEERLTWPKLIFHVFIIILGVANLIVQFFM
UniProt Q8IVJ1: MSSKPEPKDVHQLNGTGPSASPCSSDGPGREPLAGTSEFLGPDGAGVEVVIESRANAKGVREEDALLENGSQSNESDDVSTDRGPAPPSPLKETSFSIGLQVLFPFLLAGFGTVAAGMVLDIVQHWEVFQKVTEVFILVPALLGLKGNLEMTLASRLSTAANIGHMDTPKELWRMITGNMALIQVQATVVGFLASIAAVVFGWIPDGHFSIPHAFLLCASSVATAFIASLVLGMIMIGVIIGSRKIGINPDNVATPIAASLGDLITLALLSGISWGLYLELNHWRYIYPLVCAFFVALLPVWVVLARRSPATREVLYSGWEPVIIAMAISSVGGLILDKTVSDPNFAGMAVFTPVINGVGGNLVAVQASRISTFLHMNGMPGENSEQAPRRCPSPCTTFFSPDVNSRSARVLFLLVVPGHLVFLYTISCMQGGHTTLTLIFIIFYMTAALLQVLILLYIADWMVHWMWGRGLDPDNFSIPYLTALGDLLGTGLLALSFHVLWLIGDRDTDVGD
UniProt Q9UGH3: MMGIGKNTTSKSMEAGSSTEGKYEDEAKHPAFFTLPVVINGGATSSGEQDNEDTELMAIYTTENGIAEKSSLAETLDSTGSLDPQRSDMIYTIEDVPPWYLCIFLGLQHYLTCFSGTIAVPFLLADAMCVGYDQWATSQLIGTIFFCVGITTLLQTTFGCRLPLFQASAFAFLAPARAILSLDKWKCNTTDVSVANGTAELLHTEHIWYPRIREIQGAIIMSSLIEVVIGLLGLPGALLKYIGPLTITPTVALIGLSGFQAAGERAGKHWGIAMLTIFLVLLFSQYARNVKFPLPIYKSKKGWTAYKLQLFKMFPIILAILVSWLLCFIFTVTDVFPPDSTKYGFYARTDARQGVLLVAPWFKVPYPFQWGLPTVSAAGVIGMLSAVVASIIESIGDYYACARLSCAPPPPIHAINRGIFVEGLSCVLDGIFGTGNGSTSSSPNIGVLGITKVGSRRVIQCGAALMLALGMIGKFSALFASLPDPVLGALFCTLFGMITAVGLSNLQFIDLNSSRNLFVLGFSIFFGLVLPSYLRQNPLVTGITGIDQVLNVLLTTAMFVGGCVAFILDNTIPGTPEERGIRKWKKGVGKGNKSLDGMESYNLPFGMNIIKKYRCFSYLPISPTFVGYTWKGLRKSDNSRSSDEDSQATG
UniProt P12235: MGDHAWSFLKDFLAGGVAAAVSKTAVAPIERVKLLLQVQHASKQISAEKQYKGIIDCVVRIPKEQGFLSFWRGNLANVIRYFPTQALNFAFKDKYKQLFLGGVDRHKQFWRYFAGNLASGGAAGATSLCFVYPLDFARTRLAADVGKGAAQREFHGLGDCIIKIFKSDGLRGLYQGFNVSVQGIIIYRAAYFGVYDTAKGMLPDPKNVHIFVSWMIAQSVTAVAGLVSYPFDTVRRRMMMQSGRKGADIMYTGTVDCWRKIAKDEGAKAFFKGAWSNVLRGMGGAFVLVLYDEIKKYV
UniProt Q969S0: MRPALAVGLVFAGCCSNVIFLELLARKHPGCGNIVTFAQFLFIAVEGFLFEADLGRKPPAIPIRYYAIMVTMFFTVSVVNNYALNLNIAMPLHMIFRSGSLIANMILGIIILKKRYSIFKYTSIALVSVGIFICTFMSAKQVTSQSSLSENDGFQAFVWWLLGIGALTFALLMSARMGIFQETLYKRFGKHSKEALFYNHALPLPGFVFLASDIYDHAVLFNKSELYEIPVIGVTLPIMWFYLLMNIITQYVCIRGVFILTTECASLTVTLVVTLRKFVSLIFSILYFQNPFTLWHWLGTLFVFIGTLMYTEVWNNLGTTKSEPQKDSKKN
UniProt Q9H2X9: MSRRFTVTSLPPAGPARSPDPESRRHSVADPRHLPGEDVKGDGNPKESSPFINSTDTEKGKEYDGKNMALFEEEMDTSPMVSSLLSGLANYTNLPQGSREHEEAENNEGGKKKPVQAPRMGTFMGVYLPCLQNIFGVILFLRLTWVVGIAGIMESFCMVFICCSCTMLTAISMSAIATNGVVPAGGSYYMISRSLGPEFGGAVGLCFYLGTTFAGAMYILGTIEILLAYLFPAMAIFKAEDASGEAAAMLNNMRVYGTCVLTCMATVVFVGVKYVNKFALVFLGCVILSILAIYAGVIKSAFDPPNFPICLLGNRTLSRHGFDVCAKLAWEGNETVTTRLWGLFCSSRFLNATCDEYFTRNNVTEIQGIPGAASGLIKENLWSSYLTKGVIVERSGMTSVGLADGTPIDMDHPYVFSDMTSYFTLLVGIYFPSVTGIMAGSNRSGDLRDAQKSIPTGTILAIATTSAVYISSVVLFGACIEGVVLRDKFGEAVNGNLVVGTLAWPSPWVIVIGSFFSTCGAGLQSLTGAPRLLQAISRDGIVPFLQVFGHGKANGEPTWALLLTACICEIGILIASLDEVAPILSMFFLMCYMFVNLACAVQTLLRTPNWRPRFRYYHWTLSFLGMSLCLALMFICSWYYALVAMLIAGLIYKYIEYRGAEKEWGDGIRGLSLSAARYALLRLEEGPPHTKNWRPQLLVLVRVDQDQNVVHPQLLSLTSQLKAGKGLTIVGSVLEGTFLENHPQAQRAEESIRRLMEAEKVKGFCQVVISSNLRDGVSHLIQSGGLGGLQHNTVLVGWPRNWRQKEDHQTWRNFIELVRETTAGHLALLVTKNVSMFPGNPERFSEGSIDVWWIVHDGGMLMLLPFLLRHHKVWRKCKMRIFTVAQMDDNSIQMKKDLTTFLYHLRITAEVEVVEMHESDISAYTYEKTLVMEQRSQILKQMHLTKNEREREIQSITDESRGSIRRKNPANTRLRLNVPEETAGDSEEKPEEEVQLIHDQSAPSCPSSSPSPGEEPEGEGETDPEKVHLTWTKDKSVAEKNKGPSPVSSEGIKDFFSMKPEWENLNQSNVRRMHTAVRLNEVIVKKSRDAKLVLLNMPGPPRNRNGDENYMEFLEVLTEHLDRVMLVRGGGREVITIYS
UniProt Q8N357: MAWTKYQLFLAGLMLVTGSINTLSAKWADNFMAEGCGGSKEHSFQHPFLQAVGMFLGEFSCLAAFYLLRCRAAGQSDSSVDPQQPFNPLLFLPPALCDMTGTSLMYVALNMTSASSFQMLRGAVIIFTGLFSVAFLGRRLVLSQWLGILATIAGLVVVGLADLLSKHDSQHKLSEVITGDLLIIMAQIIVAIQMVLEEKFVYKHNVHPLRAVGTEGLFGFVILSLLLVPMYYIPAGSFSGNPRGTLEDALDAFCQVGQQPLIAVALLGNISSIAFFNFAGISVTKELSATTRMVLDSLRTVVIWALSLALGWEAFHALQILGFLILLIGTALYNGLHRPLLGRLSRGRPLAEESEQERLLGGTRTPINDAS
UniProt Q96GZ6: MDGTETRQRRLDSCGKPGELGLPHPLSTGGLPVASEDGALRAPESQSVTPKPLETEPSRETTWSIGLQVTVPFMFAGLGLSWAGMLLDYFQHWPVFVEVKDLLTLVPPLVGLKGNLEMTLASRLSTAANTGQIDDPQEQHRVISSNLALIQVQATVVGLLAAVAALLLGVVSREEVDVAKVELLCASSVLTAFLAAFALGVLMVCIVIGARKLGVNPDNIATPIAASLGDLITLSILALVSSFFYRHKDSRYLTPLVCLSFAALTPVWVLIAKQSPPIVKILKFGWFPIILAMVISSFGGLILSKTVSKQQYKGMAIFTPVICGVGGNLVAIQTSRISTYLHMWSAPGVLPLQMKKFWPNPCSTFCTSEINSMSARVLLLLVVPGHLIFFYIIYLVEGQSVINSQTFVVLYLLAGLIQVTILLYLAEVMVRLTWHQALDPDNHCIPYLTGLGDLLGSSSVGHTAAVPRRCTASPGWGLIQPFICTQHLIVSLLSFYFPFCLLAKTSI
UniProt Q15758: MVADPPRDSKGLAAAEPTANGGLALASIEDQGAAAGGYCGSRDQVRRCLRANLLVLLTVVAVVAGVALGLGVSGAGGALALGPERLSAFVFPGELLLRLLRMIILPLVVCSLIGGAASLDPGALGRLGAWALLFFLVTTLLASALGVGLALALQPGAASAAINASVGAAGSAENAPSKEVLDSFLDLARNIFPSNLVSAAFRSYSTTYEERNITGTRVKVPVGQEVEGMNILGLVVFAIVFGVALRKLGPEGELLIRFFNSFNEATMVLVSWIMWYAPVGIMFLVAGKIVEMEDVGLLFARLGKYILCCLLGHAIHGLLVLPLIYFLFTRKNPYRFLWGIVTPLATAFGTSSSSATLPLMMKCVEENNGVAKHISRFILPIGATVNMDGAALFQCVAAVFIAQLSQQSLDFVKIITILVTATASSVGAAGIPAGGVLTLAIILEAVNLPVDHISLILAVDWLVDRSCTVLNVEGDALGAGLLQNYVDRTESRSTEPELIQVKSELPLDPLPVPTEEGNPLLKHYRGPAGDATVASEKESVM

Key:
Assay in all cases: log2 fold change, soluble protein after heating vs DMSO (PISA); higher = thermal stabilisation; K562 cells, 10 uM, 30 min; active = over 0.2 and 3.5 SD of the protein, either way, in both replicates (recomputed)
[1] = compound: CS(=O)(=O)c1ccc(-c2cnc(N)c(C(=O)Nc3ccccc3)n2)cc1
Procedure, shortened: (§1)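 Aliquots of K562 cells (2×10^6 cells/mL) treated with 10 μM compound for 30 min were heated for 3 min over 48°C-58°C. After pooling and extraction in PBS with 0.5% NP-40 at 4°C, soluble protein from a 21,000xg, 90 min spin was quantified by TMTpro 16plex LC-MS/MS with channel sums equalised. Thermal stability is expressed against control samples, from duplicates, as a log2 fold change.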

crizotinib = compound: C[C@@H](Oc1cc(-c2cnn(C3CCNCC3)c2)cnc1N)c1c(Cl)ccc(F)c1Cl [crizotinib]
Procedure, shortened: as §1

doramapimod = compound: Cc1ccc(-n2nc(C(C)(C)C)cc2NC(=O)Nc2ccc(OCCN3CCOCC3)c3ccccc23)cc1 [doramapimod]
Procedure, shortened: as §1

ispinesib = compound: Cc1ccc(C(=O)N(CCCN)[C@@H](c2nc3cc(Cl)ccc3c(=O)n2Cc2ccccc2)C(C)C)cc1 [ispinesib]
Procedure, shortened: as §1

[2] = compound: Cn1cc(-c2ccc3nnc(C(F)(F)c4ccc5ncccc5c4)n3n2)cn1
Procedure, shortened: as §1

tipifarnib = compound: Cn1cncc1[C@@](N)(c1ccc(Cl)cc1)c1ccc2c(c1)c(-c1cccc(Cl)c1)cc(=O)n2C [tipifarnib]
Procedure, shortened: as §1

[3] = compound: C[C@@H]1COCCN1C2=NC(=NC(=C2)C3(CC3)S(=O)(=O)C)C4=C5C=CNC5=CC=C4
Procedure, shortened: as §1

[4] = compound: C[C@H](C1=CC=C(C=C1)C(=O)NC2=C3C=CNC3=NC=C2)N
Procedure, shortened: as §1

[5] = compound: Cc1cc(SCc2sc(-c3ccc(C(F)(F)F)cc3)nc2C)ccc1OCC(=O)O
Procedure, shortened: as §1

bafetinib = compound: Cc1ccc(NC(=O)c2ccc(CN3CC[C@H](N(C)C)C3)c(C(F)(F)F)c2)cc1Nc1nccc(-c2cncnc2)n1 [bafetinib]
Procedure, shortened: as §1

nilotinib = compound: Cc1cn(-c2cc(NC(=O)c3ccc(C)c(Nc4nccc(-c5cccnc5)n4)c3)cc(C(F)(F)F)c2)cn1 [nilotinib]
Procedure, shortened: as §1

[6] = compound: Cc1nc(Nc2n[nH]c3c2CN(C(=O)N[C@H](CN(C)C)c2ccccc2)C3(C)C)c2sccc2n1
Procedure, shortened: as §1

dasatinib = compound: Cc1nc(Nc2ncc(C(=O)Nc3c(C)cccc3Cl)s2)cc(N2CCN(CCO)CC2)n1 [dasatinib]
Procedure, shortened: as §1

[7] = compound: Cc1ncc(-c2ccnc(Nc3ccc(S(C)(=O)=O)cc3)n2)n1C(C)C
Procedure, shortened: as §1

[8] = compound: Cn1cc(-c2ccc3c(c2)CCN3C(=O)Cc2cccc(C(F)(F)F)c2)c2c(N)ncnc21
Procedure, shortened: as §1

mubritinib = compound: FC(F)(F)c1ccc(/C=C/c2nc(COc3ccc(CCCCn4ccnn4)cc3)co2)cc1 [mubritinib]
Procedure, shortened: as §1

gandotinib = compound: Cc1cc(Nc2cc(CN3CCOCC3)c3nc(C)c(Cc4ccc(Cl)cc4F)n3n2)n[nH]1 [gandotinib]
Procedure, shortened: as §1

[9] = compound: Cc1cccc(CC(=O)N2CCc3c2ccc(-c2cn(C)c4ncnc(N)c24)c3F)n1
Procedure, shortened: as §1

duvelisib = compound: C[C@H](Nc1ncnc2nc[nH]c12)c1cc2cccc(Cl)c2c(=O)n1-c1ccccc1 [duvelisib]
Procedure, shortened: as §1

tozasertib = compound: Cc1cc(Nc2cc(N3CCN(C)CC3)nc(Sc3ccc(NC(=O)C4CC4)cc3)n2)n[nH]1 [tozasertib]
Procedure, shortened: as §1

Measured: log2 fold change

SLC17A5 (UniProt Q9NRA2)
inactive: [1] 0.062 | crizotinib -0.036 | doramapimod -0.037 | ispinesib -0.226 | [2] -0.055 | tipifarnib 0.169

SLC27A1 (UniProt Q6PCB7)
inactive: [1] 0.116 | crizotinib 0.123 | [3] 0.016 | [4] -0.099 | [5] 0.112 | doramapimod 0.062 | ispinesib 0.06 | bafetinib 0.047 | nilotinib -0.087 | [6] -0.009 | dasatinib -0.152 | [7] 0.079 | [8] -0.053 | [2] 0.046 | tipifarnib 0.094
active: mubritinib 0.431

SLC38A2 (UniProt Q96QD8)
inactive: [1] 0.031 | crizotinib 0.028 | [3] 0.075 | [4] -0.075 | [5] 0 | doramapimod -0.03 | ispinesib -0.049 | bafetinib -0.112 | nilotinib -0.037 | [6] 0.039 | dasatinib 0.047 | [7] 0.029 | [8] -0.055 | [2] 0.029 | tipifarnib -0.073 | mubritinib 0.017

SLC29A3 (UniProt Q9BZD2)
inactive: [1] 0.014 | [3] -0.098 | [4] 0.078 | [5] 0.055 | doramapimod 0.015 | bafetinib -0.111 | nilotinib -0.055 | [6] 0.127 | dasatinib -0.059 | [7] 0.012 | [8] 0.167 | [2] 0.102 | tipifarnib 0.035 | mubritinib 0.005
active: crizotinib -0.559 | ispinesib -1.02

SLC39A11 (UniProt Q8N1S5)
inactive: [1] 0.121 | crizotinib 0.109 | [4] -0.066 | gandotinib 0.271 | [5] -0.126 | doramapimod 0.009 | ispinesib 0.085 | bafetinib -0.13 | [9] -0.043 | nilotinib -0.028 | [6] 0.001 | dasatinib 0.058 | [7] 0.248 | [8] 0.128 | [2] 0.002 | tipifarnib 0.048 | mubritinib -0.005

SLC25A23 isoform 3 (UniProt Q9BV35)
inactive: [1] 0.115 | crizotinib 0.174 | [4] 0.029 | duvelisib 0.078 | gandotinib -0.065 | tozasertib 0.06 | [5] 0.009 | doramapimod 0 | ispinesib 0.008 | bafetinib -0.037 | [9] 0.029 | nilotinib -0.003 | [6] -0.329 | dasatinib -0.116 | [7] 0.196 | [8] -0.067 | [2] 0.003 | tipifarnib -0.017 | mubritinib -0.107

SLC35A3 isoform 2 (UniProt Q9Y2D2)
inactive: [1] -0.088 | crizotinib -0.048 | [3] 0.08 | gandotinib -0.024 | doramapimod -0.054 | ispinesib 0.343 | bafetinib -0.024 | [9] -0.005 | nilotinib -0.134 | [6] 0.028 | [7] -0.121 | [2] -0.086 | tipifarnib 0 | mubritinib 0.029

SLC25A36 (UniProt Q96CQ1)
inactive: [1] 0.016 | crizotinib 0.067 | [3] -0.061 | [4] -0.011 | gandotinib 0.313 | [5] -0.089 | doramapimod -0.027 | ispinesib -0.021 | bafetinib -0.049 | [9] -0.003 | nilotinib -0.01 | [6] 0.182 | dasatinib -0.136 | [7] -0.138 | [8] 0.033 | [2] -0.004 | tipifarnib -0.075 | mubritinib -0.078

SLC48A1 (UniProt Q6P1K1)
inactive: [1] 0.062 | crizotinib -0.312 | doramapimod 0.071 | ispinesib -0.25 | bafetinib -0.021 | nilotinib 0.015 | [6] 0.075 | [7] -0.019 | [2] 0.044

SLC25A30 (UniProt Q5SVS4)
inactive: [1] -0.037 | crizotinib 0.07 | [4] -0.111 | duvelisib 0.058 | gandotinib 0.094 | [5] 0.083 | doramapimod -0.137 | ispinesib -0.054 | [9] 0.17 | nilotinib -0.118 | [6] -0.07 | dasatinib 0.029 | [7] -0.053 | [8] 0.103 | [2] -0.117 | tipifarnib 0.059

SLC38A9 (UniProt Q8NBW4)
inactive: [1] 0.165 | crizotinib -0.201 | [3] 0.052 | [4] 0.003 | gandotinib -0.018 | [5] -0.058 | doramapimod 0.067 | bafetinib -0.022 | [9] -0.04 | nilotinib 0.02 | [6] 0.05 | dasatinib 0.094 | [7] -0.081 | [8] -0.017 | [2] -0.034 | tipifarnib 0.038 | mubritinib 0.046
active: ispinesib -0.474

SLC41A1 (UniProt Q8IVJ1)
inactive: [1] -0.05 | crizotinib 0.075 | [3] -0.036 | gandotinib 0.032 | doramapimod -0.353 | ispinesib -0.089 | [9] 0.126 | nilotinib 0.025 | [6] -0.058 | [7] -0.051 | [2] 0.063 | tipifarnib -0.161 | mubritinib 0.002

SLC23A2 (UniProt Q9UGH3)
inactive: [1] 0.058 | crizotinib -0.039 | tozasertib -0.285 | doramapimod 0.008 | bafetinib -0.095 | nilotinib -0.127 | [6] 0.09 | [7] 0.102

SLC6A6 (UniProt P31641)
inactive: [1] 0.021 | crizotinib 0.04 | [3] -0.026 | [4] -0.021 | gandotinib -0.049 | [5] -0.042 | doramapimod -0.063 | ispinesib -0.028 | bafetinib -0.001 | [9] -0.018 | nilotinib 0.064 | [6] -0.015 | dasatinib -0.069 | [7] 0.068 | [8] -0.011 | [2] -0.006 | tipifarnib 0.002 | mubritinib 0.024

SLC25A4 (UniProt P12235)
inactive: [1] 0.004 | crizotinib 0.112 | [3] 0.093 | [4] 0.01 | gandotinib -0.004 | [5] -0.034 | doramapimod -0.053 | ispinesib 0.028 | bafetinib -0.027 | [9] -0.097 | nilotinib -0.004 | [6] -0.03 | dasatinib 0.033 | [7] -0.014 | [8] 0.022 | [2] -0.005 | tipifarnib 0.026 | mubritinib -0.024

SLC35B4 (UniProt Q969S0)
inactive: [1] 0.016 | crizotinib 0.256 | [3] 0.048 | doramapimod 0.038 | bafetinib -0.12 | nilotinib 0.027 | [6] 0.016 | [7] 0.1 | mubritinib 0.032

Quoted from above (2 entries):
SLC25A30 (UniProt Q5SVS4)
inactive: [1] -0.037 | crizotinib 0.07 | [4] -0.111 | duvelisib 0.058 | gandotinib 0.094 | [5] 0.083 | doramapimod -0.137 | ispinesib -0.054 | [9] 0.17 | nilotinib -0.118 | [6] -0.07 | dasatinib 0.029 | [7] -0.053 | [8] 0.103 | [2] -0.117 | tipifarnib 0.059

SLC38A9 (UniProt Q8NBW4)
inactive: [1] 0.165 | crizotinib -0.201 | [3] 0.052 | [4] 0.003 | gandotinib -0.018 | [5] -0.058 | doramapimod 0.067 | bafetinib -0.022 | [9] -0.04 | nilotinib 0.02 | [6] 0.05 | dasatinib 0.094 | [7] -0.081 | [8] -0.017 | [2] -0.034 | tipifarnib 0.038 | mubritinib 0.046
active: ispinesib -0.474

Next part.

SLC38A7 (UniProt Q9NVC3)
inactive: [1] -0.018 | crizotinib -0.449 | [3] 0.045 | [4] -0.009 | gandotinib -0.412 | doramapimod 0.035 | bafetinib -0.142 | [9] 0.016 | nilotinib 0.05 | [6] -0.023 | [7] -0.053 | [8] -0.005 | [2] 0.084 | tipifarnib 0.056 | mubritinib -0.007
active: ispinesib -0.842

SLC12A5 (UniProt Q9H2X9)
inactive: [1] 0.089 | crizotinib 0.001 | [3] 0.028 | [4] 0.027 | [5] 0.083 | doramapimod 0.234 | bafetinib 0.009 | dasatinib -0.034 | [8] 0.002 | tipifarnib 0.117 | mubritinib -0.001

SLC35F6 (UniProt Q8N357)
inactive: [1] -0.247 | [3] 0.021 | [4] 0.076 | [5] -0.219 | ispinesib -0.083 | bafetinib -0.208 | nilotinib -0.037 | [6] -0.13 | dasatinib 0.078 | [7] 0.143 | [8] 0.049 | [2] 0.052 | tipifarnib 0.01 | mubritinib 0.072

SLC41A3 isoform 9 (UniProt Q96GZ6)
inactive: [1] -0.049 | crizotinib 0.011 | [3] 0.077 | gandotinib 0.035 | tozasertib -0.118 | doramapimod 0.012 | bafetinib -0.033 | [9] -0.017 | nilotinib 0.009 | [6] 0.022 | [7] 0.045 | mubritinib -0.079

SLC1A5 (UniProt Q15758)
inactive: [1] 0.026 | crizotinib 0.13 | [3] 0.072 | [4] -0.186 | gandotinib -0.105 | [5] -0.091 | doramapimod -0.007 | ispinesib 0.167 | bafetinib 0.041 | [9] 0.004 | nilotinib 0.067 | [6] 0.023 | dasatinib 0.023 | [7] 0.014 | [8] 0.035 | [2] -0.032 | tipifarnib 0.026 | mubritinib 0.052
